Reference: PubChem BioAssay AID1487 (National Center for Advancing Translational Sciences (NCATS), 2009)
Some of the results follow. These are further read-outs of the screen, such as a control signal, another cell line or another target. No call is given for them. Most of these compounds were active or inconclusive in the main read-out, so they are no random draw. Potencies come from curve fits of mixed quality, noted in brackets.

Assay: qHTS Assay for Modulators of Lamin A Splicing
Details: HeLa LMNA splicing GFP/RFP minigene ratio, 48 h
Summary of the method: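 S3 HeLa cells stably expressing lamin A-EGFP splicing minigene plus DsRed2, 600 cells/well, 48 h compound exposure at 37C. Laser-scanning cytometry; analysed as GFP (500-530 nm)/RFP (575-640 nm) total intensity ratio; 0.5% DMSO vehicle.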

[1] = measured here: RFP viability control channel
[2] = measured here: GFP splicing reporter channel

With `C(=C\c1ccccc1)/CN1CCN(C(c2ccccc2)c2ccccc2)CC1` as the molecule, how does the AC50 [1] read?
Its AC50 is 0.00501 µM [falling, full curve, poor fit].

What does the source list for `COc1ccc(NC(=S)NNC(=O)c2cccs2)cc1`?
AC50 [2]: 31.6 µM [rising, single point]; AC50 [1]: 35.5 µM [rising, single point]

For `Cc1ccc(C)c(OCCSc2nnc(C)c(=O)[nH]2)c1`, which AC50 [1] is on record?
The AC50 was 0.282 µM [rising, partial curve, poor fit].

With `COc1cc2c(cc1OC)/C(=C/c1ccc(Br)cc1)C(=O)OC2` as the molecule, how does the AC50 [1] read?
Its AC50 is 6.31 µM [rising, full curve, poor fit].

With `O=C(NCc1ccccn1)C1CCN(S(=O)(=O)c2cccs2)CC1` as the molecule, how does the AC50 [2] read?
Its AC50 is 1.12 µM [falling, full curve, poor fit].

And the AC50 [1]?
The AC50 was 0.447 µM [falling, full curve, poor fit].

For `CCN(Cc1cc2cc(C)ccc2[nH]c1=O)C(=O)c1cccc(OC)c1`, which AC50 [1] is on record?
Its AC50 is 15.8 µM [rising, single point].

With `O=C(c1ccc(COc2c(F)c(F)cc(F)c2F)o1)N1CCN(c2ccc(Cl)cc2)CC1` as the molecule, how does the AC50 [1] read?
The AC50 was 11.2 µM [rising, partial curve].

For `CC(=O)N1CCN(c2ccc(NC(=O)COc3ccc(Cl)cc3Cl)cc2)CC1`, which AC50 [1] is on record?
Its AC50 is 10 µM [rising, partial curve].

For `Cc1ccc(C)c(S(=O)(=O)N2CCN(C(C)C(=O)Nc3ccccc3-c3ccccc3)CC2)c1` (stereo not drawn), which AC50 [1] is on record?
Its AC50 is 15.8 µM [rising, single point].

Which AC50 [2] does the source give for `O=[N+]([O-])c1ccc(COc2ncnc3ccccc23)cc1` here?
The AC50 was 0.0224 µM [falling, full curve].

Which AC50 [1] does the source give for `Clc1ccccc1-c1nnc2sc(-c3ccc(Br)o3)nn12` here?
The AC50 was 22.4 µM [rising, partial curve, poor fit].

Which AC50 [1] does the source give for `CCCN(CCC)CCNC(=O)C1CCCN(S(=O)(=O)c2ccc3c(c2)oc(=O)n3C)C1` (stereo not drawn) here?
Its AC50 is 5.62 µM [falling, full curve].

For `COCCn1c(SCc2csc(-c3ccccc3)n2)nc2ccccc21`, which AC50 [2] is on record?
Its AC50 is 15.8 µM [rising, single point].

And the AC50 [1]?
The AC50 was 35.5 µM [rising, single point].

Which AC50 [1] does the source give for `Fc1ccc(CN2CCc3nc(Nc4ccccc4)ncc3C2)cc1F` here?
The AC50 was 28.2 µM [falling, single point].

Which results are given for `OC(COc1ccc(Cl)c2ccccc12)CN1CCN(c2ccccn2)CC1` (stereo not drawn)?
AC50 [2]: 14.1 µM [rising, partial curve]; AC50 [1]: 35.5 µM [rising, single point]

With `CN1C(=O)c2ccccc2Sc2ccc(NC(=O)COc3ccc(F)cc3)cc21` as the molecule, how does the AC50 [1] read?
The AC50 was 35.5 µM [rising, single point].

Which AC50 [2] does the source give for `COc1ccc(CCNc2ncnc3c2cnn3-c2ccc(C)cc2)cc1` here?
Its AC50 is 35.5 µM [falling, single point].

Which AC50 [1] does the source give for `COC(=O)c1ccc(OCC(O)CN(CCO)CCO)cc1` (stereo not drawn) here?
The AC50 was 0.00447 µM [falling, full curve, poor fit].

For `CC1CCCC(C)N1C(=O)CSc1nc2ccccc2c(=O)[nH]1` (stereo not drawn), which AC50 [1] is on record?
Its AC50 is 0.00316 µM [falling, full curve, poor fit].

With `Cc1ccccc1OCCCCCn1ccnc1` as the molecule, how does the AC50 [1] read?
Its AC50 is 10 µM [rising, partial curve].

For `CCOC(=O)/C=C/C(=O)Nc1ccc(Oc2ccccc2)cc1`, which AC50 [2] is on record?
The AC50 was 15.8 µM [falling, single point].

What about the AC50 [1] of the same molecule?
The AC50 was 15.8 µM [falling, single point].

Which results are given for `COc1ccc(OC)c2c(C)cc(NCCN3CCOCC3)nc12`?
AC50 [2]: 10 µM [rising, partial curve]; AC50 [1]: 11.2 µM [rising, single point]

Which AC50 [1] does the source give for `COc1ccc(CC(=O)Nc2ccc(S(=O)(=O)NC(C)C)cc2)cc1` here?
Its AC50 is 31.6 µM [rising, single point].

What does the source list for `CCOc1ccc(CSC2=NCCN2)cc1[N+](=O)[O-]`?
AC50 [2]: 28.2 µM [rising, single point]; AC50 [1]: 35.5 µM [rising, single point]

With `Cc1nn(-c2ccccc2)c(C)c1/C=N/NC(=O)c1cc(C23CC4CC(CC(C4)C2)C3)[nH]n1` as the molecule, how does the AC50 [1] read?
The AC50 was 12.6 µM [rising, partial curve].

Which AC50 [2] does the source give for `O=C(NNc1ccc([N+](=O)[O-])cc1[N+](=O)[O-])C1C2CCCCC21` (stereo not drawn) here?
The AC50 was 7.08 µM [rising, full curve, poor fit].

And the AC50 [1]?
Its AC50 is 7.94 µM [rising, partial curve].

For `CC1(C)C2CCC1(CS(=O)(=O)NC1CCCC1)C(=O)C2` (stereo not drawn), which AC50 [2] is on record?
The AC50 was 5.01 µM [rising, full curve, poor fit].

For `Cc1cc(C(=O)CNCc2ccco2)c(C)n1-c1ccc(F)cc1`, which AC50 [2] is on record?
The AC50 was 31.6 µM [rising, single point].

And the AC50 [1]?
The AC50 was 22.4 µM [rising, single point].

With `O=C(CSc1ccc(-c2ccc(Cl)cc2)nn1)N1CCCc2ccccc21` as the molecule, how does the AC50 [1] read?
The AC50 was 35.5 µM [rising, single point].

What does the source list for `CCc1cc2c(nc1CC)CCN(CC/C(C)=N/OC[C@H]1O[C@H](c3ccccc3)C=C[C@@H]1Oc1ccc(OC)cc1)C2`?
AC50 [2]: 11.2 µM [rising, partial curve, poor fit]; AC50 [1]: 20 µM [rising, partial curve]

Which AC50 [2] does the source give for `O=C(NCCCN1CCOCC1)c1cccc(S(=O)(=O)Nc2cc(Cl)ccc2Cl)c1` here?
Its AC50 is 0.178 µM [falling, full curve, poor fit].

With `O=C(Nc1nc(-c2cccs2)cs1)c1ccc(S(=O)(=O)N2CCCCC2)cc1` as the molecule, how does the AC50 [1] read?
Its AC50 is 3.98 µM [rising, full curve, poor fit].

What does the source list for `CN(c1ccccc1)S(=O)(=O)c1cccc(C(=O)OCC(=O)NCCCN2CCCC2=O)c1`?
AC50 [2]: 0.00316 µM [rising, full curve, poor fit]; AC50 [1]: 0.0891 µM [rising, partial curve]

What does the source list for `Cc1cc(/C=C2/NC(=O)N(Cc3ccccc3F)C2=O)c(C)n1-c1ccccn1`?
AC50 [2]: 14.1 µM [rising, single point]; AC50 [1]: 12.6 µM [rising, partial curve, poor fit]

With `COC(=O)C1=C(C(=O)OC)[C@@H]2Nc3ccccc3[C@@]23C[C@@H](C(=O)OC)N(C(=O)c2ccc(Br)cc2)C3=N1` as the molecule, how does the AC50 [2] read?
Its AC50 is 0.355 µM [falling, partial curve, poor fit].

For `Cc1ccc(S(=O)(=O)/N=C(/Nc2ccc3[nH]c(=O)[nH]c3c2)c2ccc(F)cc2)cc1`, which AC50 [2] is on record?
The AC50 was 0.0178 µM [rising, full curve].

For `O=C(CNC(=O)C12CC3CC(CC(C3)C1)C2)N1CCN(S(=O)(=O)/C=C/c2ccccc2)CC1`, which AC50 [1] is on record?
Its AC50 is 12.6 µM [rising, partial curve].

Which AC50 [1] does the source give for `Cc1cc(C)c(OCCNC(=O)c2ccccc2Sc2ccccc2C#N)c(C)c1` here?
Its AC50 is 22.4 µM [rising, partial curve].

For `Cc1cc(C)c2[nH]c(=O)c(CN(Cc3ccco3)C(=S)NCC3CCCO3)cc2c1` (stereo not drawn), which AC50 [2] is on record?
Its AC50 is 31.6 µM [rising, single point].

What about the AC50 [1] of the same molecule?
The AC50 was 22.4 µM [rising, single point].

Which AC50 [2] does the source give for `CSc1ccccc1NC(=O)c1cc(-c2cccnc2)nc2ccc(Br)cc12` here?
The AC50 was 8.91 µM [falling, single point].

For `COc1ccc(-c2nnc(SCC(=O)NCc3ccc(C)cc3)nc2-c2ccc(OC)c(OC)c2)cc1OC`, which AC50 [1] is on record?
The AC50 was 11.2 µM [rising, partial curve].

With `COc1ccc(C(=O)NC(NC(=O)c2ccc(OC)c(OC)c2)c2ccccc2F)cc1OC` as the molecule, how does the AC50 [2] read?
Its AC50 is 3.55 µM [falling, partial curve, poor fit].

What about the AC50 [1] of the same molecule?
Its AC50 is 2 µM [falling, partial curve, poor fit].

Which AC50 [1] does the source give for `CC(C)COC(=O)NCCOC(=O)Nc1cccc(Cl)c1` here?
The AC50 was 11.2 µM [rising, partial curve].

For `O=C(CSc1n[nH]c(-c2ccccc2Cl)n1)N1CCN(c2ccccc2)CC1`, which AC50 [1] is on record?
Its AC50 is 0.0251 µM [falling, full curve].

Which AC50 [1] does the source give for `Cc1ccc(-c2noc(CCC(=O)N3CCN(c4cccc(C(F)(F)F)c4)CC3)n2)cc1` here?
Its AC50 is 25.1 µM [rising, single point].

With `CCOc1cc(/C=N/n2c(C)nc3sc(C)c(C)c3c2=O)ccc1O` as the molecule, how does the AC50 [2] read?
The AC50 was 35.5 µM [rising, single point].

For `C/C(CC(=O)Nc1ccccn1)=N\NC(=O)C(=O)Nc1ccccc1C`, which AC50 [1] is on record?
The AC50 was 0.178 µM [falling, full curve, poor fit].

What does the source list for `COc1ccccc1C(=O)Nc1nc(-c2ccc(S(=O)(=O)N3CCOCC3)cc2)cs1`?
AC50 [2]: 10 µM [rising, partial curve]; AC50 [1]: 12.6 µM [rising, partial curve]

For `Cc1ccc(OCc2nnc(SCC(=O)c3ccccc3)n2-c2ccccc2)cc1`, which AC50 [1] is on record?
The AC50 was 10 µM [rising, partial curve].

Which AC50 [1] does the source give for `CCCOc1cccc(NC(=O)c2cc(C)oc2C)c1` here?
Its AC50 is 35.5 µM [rising, single point].

Which AC50 [1] does the source give for `CC1CC(=O)N(c2ccc(NCc3ccccc3Cl)c([N+](=O)[O-])c2)C1=O` (stereo not drawn) here?
The AC50 was 31.6 µM [rising, single point].

For `CCN(C(=O)CCCC(=O)N(CC)c1ccccc1)c1ccccc1`, which AC50 [2] is on record?
The AC50 was 12.6 µM [rising, single point].

For `Cn1cc(CNC(=O)c2sc3cccc(Cl)c3c2Cl)cn1`, which AC50 [1] is on record?
The AC50 was 35.5 µM [rising, single point].

Which AC50 [2] does the source give for `CCc1ccc(C(=O)NNc2ccc(F)cc2)cc1` here?
Its AC50 is 22.4 µM [rising, partial curve, poor fit].

For `Cc1ccc(NC(=O)c2ccc(=O)n(CC(=O)Nc3cccc(C)c3)n2)cc1`, which AC50 [2] is on record?
Its AC50 is 0.141 µM [falling, full curve, poor fit].

And the AC50 [1]?
The AC50 was 0.158 µM [falling, full curve, poor fit].

What does the source list for `CCC(C)c1ccc(OCCn2ccnc2)cc1` (stereo not drawn)?
AC50 [2]: 14.1 µM [rising, partial curve, poor fit]; AC50 [1]: 20 µM [rising, single point]
